Laboratory results: PMC8040471
These are yes or no findings as the source states them, for the method shown. In cells and extracts the contact can be indirect. Some results given as binding are weak or reduced against the parent protein; the word gives no strength.

Protein sequences, listed by entry. Tags and fused reporters are not part of them. Lines headed by an entry give the natural chain unless they say otherwise; changes in a name come on top. Residues count along the entry.
UniProt O95831: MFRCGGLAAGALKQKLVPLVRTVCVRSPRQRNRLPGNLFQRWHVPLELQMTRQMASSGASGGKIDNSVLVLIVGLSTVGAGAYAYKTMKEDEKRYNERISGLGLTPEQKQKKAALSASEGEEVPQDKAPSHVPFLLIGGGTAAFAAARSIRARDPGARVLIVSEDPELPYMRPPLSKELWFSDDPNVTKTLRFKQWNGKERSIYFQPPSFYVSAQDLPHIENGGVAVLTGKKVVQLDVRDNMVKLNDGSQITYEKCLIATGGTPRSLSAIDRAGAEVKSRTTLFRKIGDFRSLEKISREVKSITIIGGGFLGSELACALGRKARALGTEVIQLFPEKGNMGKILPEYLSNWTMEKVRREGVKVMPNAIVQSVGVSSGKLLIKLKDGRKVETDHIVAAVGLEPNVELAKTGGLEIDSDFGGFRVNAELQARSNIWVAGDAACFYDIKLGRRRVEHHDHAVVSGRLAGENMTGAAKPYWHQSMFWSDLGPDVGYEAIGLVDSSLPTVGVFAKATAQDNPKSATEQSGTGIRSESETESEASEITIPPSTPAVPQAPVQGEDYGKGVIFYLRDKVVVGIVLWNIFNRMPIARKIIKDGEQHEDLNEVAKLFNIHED
AIF 57 kDa (WT), overexpressed: residues 102-613 of O95831
GST-truncated AIF, amino acids 263-480: residues 263-480 of O95831
UniProt Q9P286: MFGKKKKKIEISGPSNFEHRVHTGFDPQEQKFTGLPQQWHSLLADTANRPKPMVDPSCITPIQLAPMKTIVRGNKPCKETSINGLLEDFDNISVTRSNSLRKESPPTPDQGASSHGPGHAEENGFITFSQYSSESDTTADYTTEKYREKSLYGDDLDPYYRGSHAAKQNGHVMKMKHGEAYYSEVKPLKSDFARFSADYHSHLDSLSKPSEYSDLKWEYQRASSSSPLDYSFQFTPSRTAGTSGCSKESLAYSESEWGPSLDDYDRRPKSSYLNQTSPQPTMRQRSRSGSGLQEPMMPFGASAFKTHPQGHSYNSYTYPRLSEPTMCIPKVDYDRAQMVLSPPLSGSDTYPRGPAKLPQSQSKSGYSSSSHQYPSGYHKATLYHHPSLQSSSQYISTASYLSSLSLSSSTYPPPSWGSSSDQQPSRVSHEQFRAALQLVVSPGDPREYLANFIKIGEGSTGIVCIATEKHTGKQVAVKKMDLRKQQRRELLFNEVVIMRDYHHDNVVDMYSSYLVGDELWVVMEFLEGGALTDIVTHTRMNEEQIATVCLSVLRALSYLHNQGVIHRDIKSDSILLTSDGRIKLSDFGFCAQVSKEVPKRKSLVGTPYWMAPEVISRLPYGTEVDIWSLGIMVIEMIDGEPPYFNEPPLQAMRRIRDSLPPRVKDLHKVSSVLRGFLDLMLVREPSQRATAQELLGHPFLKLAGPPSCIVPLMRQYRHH

Legend:
[1] = molecular target: AIF 57 kDa (WT), overexpressed (human) (UniProt O95831); experiment: co-IP; breast cancer cells overexpressing PAK5 and AIF 57 kDa; cytoplasmic and nuclear proteins separated by kit, then immunoprecipitation and western blot
[2] = molecular target: GST-truncated AIF, amino acids 263-480 (human) (UniProt O95831); experiment: pull-down; GST pull-down in vitro with GST-AIF or GST-truncated AIF as bait; method as in ref. 22

binding [1] | binding [2] | Substance
binds |  | PAK5, overexpressed in cells (from UniProt Q9P286 1-719) (enzyme)
 | binds | PAK5 used in the GST pull-down assays (from UniProt Q9P286 1-719) (enzyme)
